Data published in US20250276973A1, “CRYSTAL OF 7H-PYRROLO[2,3-D]PYRIMIDINE-4-AMINE DERIVATIVE” (TAIHO PHARMACEUTICAL CO., LTD., priority 2022, published 2025).
Some entries share one result that the patent states for a list of compounds.

Assay: Dynamic vapor sorption (DVS) test
Type: physicochemical
Conditions: 25° C., 95% RH
Description: Vapor sorption tests were performed using the type II crystal of Compound (1) in free form, the type III crystal of Compound (1) in free form, the type VII crystal of Compound (1) in free form, and the type VIII crystal of Compound (1) in free form obtained in the examples, reference example, and comparative example.
Vapor sorption tests were conducted under the following conditions.
Approximately 10 mg of the sample was filled into a specialized quartz holder to continuously measure and record the weight of the sample at each humidity was under the following conditions. The instrument, including data processing, was handled in accordance with the method and procedure indicated for each instrument. • Instrument: VTI-SA+(manufactured by TA Instruments) • Drying temperature: 60° C. • Heating rate: 1° C./min • Equilibration of drying: Confirmation of no more than 0.01 wt % decrease in 5 minutes within a period not exceeding 300 minutes • Measurement temperature: 25° C. • Equilibration of humidification: Confirmation of no more than 0.01 wt % increase in 5 minutes within a period not exceeding 120 minutes • Relative humidity program: Increase from 5 to 95% RH in increments of 5% RH, and decrease from 95% to 5% RH in increments of 5% RH. • Changes in the weight over the range of the measurement conditions obtained in these tests are shown in FIGS. 9 through 12.
Vapor sorption tests were performed using the type III crystal of Compound (1) with succinic acid, the type I crystal of Compound (1) with citric acid, the type IV crystal of Compound (1) with citric acid, the type I crystal of Compound (1) with sorbic acid, and the type I crystal of Compound (1) with phosphoric acid obtained in the examples, reference example, and comparative examples.
Vapor sorption tests were conducted under the same conditions as in Test Example 2.

C#Cc1c(-c2cnc3ccccc3c2)c2c(N)ncnc2n1C12CCC(NC(=O)c3cnc(C)cn3)(CC1)C2 [Type I crystal of Compound (1) with phosphoric acid] [N-(4-(4-amino-6-ethynyl-5-(quinolin-3-yl)-7H-pyrrolo[2,3-d]pyrimidin-7-yl)bicyclo[2.2.1]heptan-1-yl)-5-methylpyrazine-2-carboxamide]
Weight increase under 95% relative humidity: ≥ 1%

C#Cc1c(-c2cnc3ccccc3c2)c2c(N)ncnc2n1C12CCC(NC(=O)c3cnc(C)cn3)(CC1)C2 [Type VIII crystal in free form, N-(4-(4-amino-6-ethynyl-5-(quinolin-3-yl)-7H-pyrrolo[2,3-d]pyrimidin-7-yl)bicyclo[2.2.1]heptan-1-yl)-5-methylpyrazine-2-carboxamide]
Weight increase under 95% relative humidity: ≥ 1%

C#Cc1c(-c2cnc3ccccc3c2)c2c(N)ncnc2n1C12CCC(NC(=O)c3cnc(C)cn3)(CC1)C2 [Type I crystal of Compound (1) with citric acid] [N-(4-(4-amino-6-ethynyl-5-(quinolin-3-yl)-7H-pyrrolo[2,3-d]pyrimidin-7-yl)bicyclo[2.2.1]heptan-1-yl)-5-methylpyrazine-2-carboxamide]
Weight increase under 95% relative humidity: ≥ 1%

C#Cc1c(-c2cnc3ccccc3c2)c2c(N)ncnc2n1C12CCC(NC(=O)c3cnc(C)cn3)(CC1)C2 [Type IV crystal of Compound (1) with citric acid] [N-(4-(4-amino-6-ethynyl-5-(quinolin-3-yl)-7H-pyrrolo[2,3-d]pyrimidin-7-yl)bicyclo[2.2.1]heptan-1-yl)-5-methylpyrazine-2-carboxamide]
Weight increase under 95% relative humidity: ≥ 1%

C#Cc1c(-c2cnc3ccccc3c2)c2c(N)ncnc2n1C12CCC(NC(=O)c3cnc(C)cn3)(CC1)C2 [Type VII crystal in free form, N-(4-(4-amino-6-ethynyl-5-(quinolin-3-yl)-7H-pyrrolo[2,3-d]pyrimidin-7-yl)bicyclo[2.2.1]heptan-1-yl)-5-methylpyrazine-2-carboxamide]
Weight increase under 95% relative humidity: ≥ 1%
